Results published in publication PMC11874553.
Results are given in words; binding and its absence hold for the method and conditions named. In cells and extracts the contact can be indirect. Some results given as binding are weak or reduced against the parent protein; the word gives no strength.

The chains behind the UniProt entries cited, without tags or fusion partners.
UniProt Q96P20: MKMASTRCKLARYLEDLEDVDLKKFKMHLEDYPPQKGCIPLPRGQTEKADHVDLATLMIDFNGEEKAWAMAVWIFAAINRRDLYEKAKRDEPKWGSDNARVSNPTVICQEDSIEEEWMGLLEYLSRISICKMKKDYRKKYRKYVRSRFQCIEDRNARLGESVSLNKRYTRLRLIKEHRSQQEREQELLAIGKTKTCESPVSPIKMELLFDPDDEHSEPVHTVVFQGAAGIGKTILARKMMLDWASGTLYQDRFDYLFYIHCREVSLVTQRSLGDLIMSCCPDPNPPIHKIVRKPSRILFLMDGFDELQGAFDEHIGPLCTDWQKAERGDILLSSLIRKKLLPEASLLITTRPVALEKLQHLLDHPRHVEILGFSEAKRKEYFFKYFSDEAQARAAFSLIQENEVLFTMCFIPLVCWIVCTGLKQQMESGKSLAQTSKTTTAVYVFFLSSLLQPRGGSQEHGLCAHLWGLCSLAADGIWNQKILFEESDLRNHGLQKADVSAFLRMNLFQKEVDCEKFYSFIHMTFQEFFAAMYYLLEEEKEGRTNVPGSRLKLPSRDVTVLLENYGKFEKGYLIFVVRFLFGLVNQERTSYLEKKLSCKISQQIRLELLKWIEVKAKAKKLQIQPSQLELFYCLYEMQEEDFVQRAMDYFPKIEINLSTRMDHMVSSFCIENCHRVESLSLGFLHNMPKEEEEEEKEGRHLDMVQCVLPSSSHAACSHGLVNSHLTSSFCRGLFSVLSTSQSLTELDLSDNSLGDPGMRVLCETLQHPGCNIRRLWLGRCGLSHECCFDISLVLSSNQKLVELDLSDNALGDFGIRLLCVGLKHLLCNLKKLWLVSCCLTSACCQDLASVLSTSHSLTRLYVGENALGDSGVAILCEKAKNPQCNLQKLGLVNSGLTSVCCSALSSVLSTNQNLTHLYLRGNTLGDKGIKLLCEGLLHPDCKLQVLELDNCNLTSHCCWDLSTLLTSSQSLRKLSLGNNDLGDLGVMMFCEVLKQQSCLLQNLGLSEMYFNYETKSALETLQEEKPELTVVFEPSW

Molecular target: NLRP3 (human (endogenous in HNE-2)) (UniProt Q96P20)
Test: co-IP; total protein from HNE-2 cells incubated overnight at 4 °C with IgG and specific antibodies; protein A/G PLUS-agarose beads 6 h at 4 °C; Western blot with anti-TMEM71 and anti-NLRP3

B1: TMEM71 (protein, UniProt Q6P5X7 1-295)
chain: MYRISQLMSTPVASSSRLEREYAGELSPTCIFPSFTCDSLDGYHSFECGSIDPLTGSHYTCRRSPRLLTNGYYIWTEDSFLCDKDGNITLNPSQTSVMYKENLVRIFRKKKRICHSFSSLFNLSTSKSWLHGSIFGDINSSPSEDNWLKGTRRLDTDHCNGNADDLDCSSLTDDWESGKMNAESVITSSSSHIISQPPGGNSHSLSLQSQLTASERFQENSSDHSETRLLQEVFFQAILLAVCLIISACARWFMGEILASVFTCSLMITVAYVKSLFLSLASYFKTTACARFVKI
binding: binds
